Results reported in PubChem BioAssay AID1347076 (National Center for Advancing Translational Sciences (NCATS), 2019).
In all, about 400,000 compounds went through this assay and about 13,000 (3.2%) were called active. The inconclusive results got no clear call from the source; some entries with a clear call stand among them for comparison. The call rests on the fitted dose curve; in most records, active means well fitted cell-killing curve with a large enough effect; inconclusive means small, poorly fitted or top-dose-only effect, or effect the other way; inactive means flat fitted curve, though single readings scatter. Potencies of inconclusive entries are doubtful fits and often do not repeat.

Assay: qHTS assay for MDR1-selective chemotherapeutics: Primary screen using the drug-selected MDR subline cells KB-V1; further: nearly all actives have a fitted effect of over 60% in size
Conditions: KB-V1 MDR cells viability, CellTiter-Glo, 72 h; series mostly up to 46.1 µM
Summary of the method: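 Readout: CellTiter-Glo luminescence, 10 min after addition. Cells: KB-V1 MDR subline, 72 h at 37 degrees C with compound. Analysis: corrected, normalized data fitted to concentration-effect curves.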
Potency means the concentration at half of the fitted maximal effect.

Compound | Potency
COc1ccc(-n2c(C)c(C(C)=O)c3cc(OC(C)=O)ccc32)cc1 | inconclusive: 18.4 µM [cytotoxic, single point]
Cc1c(Cl)cccc1-c1ccc(CNc2ccc3[nH]c(=O)[nH]c3c2)o1 | inconclusive: 20.6 µM [rising, partial curve, poor fit]
CN(C)c1ccc(C(C(=O)NC2CCCCC2)N(Cc2ccco2)C(=O)c2snc(C(N)=O)c2N)cc1 (stereo not given) | active: 20.6 µM
O=C(CSc1nc2ccccc2c(=O)[nH]1)c1ccc(O)c(O)c1 | active: 18.4 µM
CNc1ccc(C=O)cc1Cl | inconclusive: 18.4 µM [rising, single point]
Clc1ccc2nc(CSc3ccccc3)cn2c1 | inconclusive: 25.9 µM [cytotoxic, single point]
Cc1ccc(CCNC(=O)c2cc3sccc3n2Cc2ccc(C)cc2)cc1 | inactive
Cc1cc(C)cc(-n2c(SCC(=O)N3CCCCC3)nc3c([nH]c4ccccc43)c2=O)c1 | inactive
COc1ccc(-c2csc(N(CCCN(C)C)C(=O)c3ccc(Br)cc3)n2)cc1 | inconclusive: 4.11 µM [cytotoxic, partial curve]
CC(OC(=O)c1cccc(-n2cnnn2)c1)C(=O)Nc1cccc(Cl)c1 (stereo not given) | inconclusive: 1.03 µM [cytotoxic, partial curve]
COc1ccc(/C=C2\CCc3ccccc3C2=O)cc1O | active: 5.17 µM
COc1ccc(NS(=O)(=O)c2cccc3cccnc23)cc1Cl | inactive
CC1CCN(S(=O)(=O)c2ccc3c(c2)oc(=O)n3CC(=O)NCc2ccc(F)cc2)CC1 | inactive
Cc1cnc(CNC(=O)C2CCC(=O)N(CCc3cccc(F)c3)C2)[nH]1 (stereo not given) | inconclusive: 18.4 µM [rising, single point]
Cc1c(Cl)cn2c(=O)cc(CN3CCN(c4ccccc4)CC3)nc2c1Cl | inconclusive: 16.4 µM [cytotoxic, single point]
CN(C)c1ccc(-c2noc(C3CCN(C(=O)Nc4ccc(Cl)cc4)CC3)n2)cc1 | inconclusive: 2.31 µM [cytotoxic, partial curve, poor fit]
COc1ccccc1Cc1c(-c2ccc(OC)c(OC)c2)nc2c3ccccc3ccn12 | inconclusive: 29.1 µM [cytotoxic, single point]
Cc1cc2ncn(CCOc3ccccc3)c2cc1C | active: 23.1 µM
CCOC(=O)c1ccc(NC(=O)c2cccc(S(=O)(=O)N3c4ccccc4CC3C)c2)s1 (stereo not given) | inconclusive: 9.2 µM [cytotoxic, partial curve, poor fit]
N#Cc1ccc(NC(=O)COc2ccccc2C(=O)Nc2ccccc2)cc1 | inconclusive: 32.6 µM [cytotoxic, partial curve, poor fit]

Exported as labelled records: two of the compounds above
Cc1ccc(CCNC(=O)c2cc3sccc3n2Cc2ccc(C)cc2)cc1
  Potency: inactive
Cc1cc(C)cc(-n2c(SCC(=O)N3CCCCC3)nc3c([nH]c4ccccc43)c2=O)c1
  Potency: inactive
